For some assays here: Not every detail of the peptide structures is certain; ends, links or a residue may be inferred. For some assays here: For at least one compound, name, drawing or mass did not settle the structure.
How the values were obtained:
[1] = tested on: hydropenic rat; test: Hydropenic Rat Screen (anti-ADH activity in vivo); details: intraperitoneal, dose required to lower urine osmolality to 300 m-Osmoles/kg
Procedure: The assay for anti-ADH activity in vivo is the hydropenic rat protocol described below:
Food and water are removed from male rats approximately 18 hours prior to testing. Animals are housed 4 per metabolism cage. At 0 hour, the test compound is administered intraperitoneally to the test group and an equivalent volume of vehicle is administered to both control groups (fasted and non-fasted). Urine volume and osmolality are measured every hour for 4 hours. Test values are recorded as ml of urine excreted (cumulative), mEg/rat electrolyte excreted, mg/rat urea excreted, and osmolality in milli-Osmoles/kg H2 O. A […] is used to determine significance. ED300 is defined as the dose of compound (μg/kg) required to lower urine osmolality to 300 m-Osmoles/kg.

Amino acid sequences for entries named in this document (tags omitted).
UniProt P32307, whole entry: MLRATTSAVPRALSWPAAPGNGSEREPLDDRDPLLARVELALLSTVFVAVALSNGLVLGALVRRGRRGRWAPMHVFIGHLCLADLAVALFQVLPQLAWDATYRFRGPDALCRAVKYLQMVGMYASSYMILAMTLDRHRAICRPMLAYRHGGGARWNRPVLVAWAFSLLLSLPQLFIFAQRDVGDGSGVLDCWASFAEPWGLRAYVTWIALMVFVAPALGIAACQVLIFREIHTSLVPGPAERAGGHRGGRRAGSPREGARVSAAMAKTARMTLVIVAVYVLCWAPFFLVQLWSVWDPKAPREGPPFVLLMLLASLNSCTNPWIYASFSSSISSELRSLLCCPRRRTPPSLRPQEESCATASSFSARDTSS

[2] = biological target: vasopressin receptors (V2 -receptors) (Sus scrofa, UniProt P32307)

| Compound | ED300 [1] | Kb [2] |
| --- | --- | --- |
| CCOc1ccc(C[C@H]2NC(=O)CC3(CCCCC3)CCC[C@H](C(=O)N3CCC[C@H]3C(=O)N[C@@H](CCCNC(=N)N)C(N)=O)NC(=O)[C@H](CC(N)=O)NC(=O)[C@H](C(C)C)NC(=O)[C@H](Cc3ccccc3)NC2=O)cc1 [Compound D, [1,6(6,6-cyclopentamethylene-2-amino-D-suberic acid)2-(O--ethy1D-tyrosine)-4-valine-9-desglycine]vasopressin] | 0.0308 mg/kg |  |
| CCOc1ccc(C[C@H]2NC(=O)CC3(CCCCC3)CCCC(C(=O)N[C@@H](CCCN=C(N)N)C(=O)N[C@H](CCCN=C(N)N)C(N)=O)NC(=O)[C@H](CC(N)=O)NC(=O)[C@H](C(C)C)NC(=O)[C@H](Cc3ccccc3)NC2=O)cc1 (some centres unmarked) [E] |  | 1.6 nM |

Reference: patent publication US4760052A, “1,6-dicarba-vasopressin compounds” (Smithkline Beckman Corporation, priority 1987, dated 1988)
